Our source for the binding values is paper PMC8501971.

These are yes or no findings as the source states them, for the method shown. Binding seen in cells or lysates may run through a third protein. Binding calls can cover weak binding; strength is not graded here. Tags and fused reporters may be left off the sequences shown.

This experiment concerns the target glutathione S-transferase-EBNA-LP fusion protein (Epstein-Barr virus). Put plainly: pull-down; HEK293T co-transfected with GST or GST-EBNA-LP and a Flag-tagged RBM protein, collected 48 h post-transfection; lysate in 20 mM Tris pH 8, 150 mM NaCl, 1 mM EDTA, 0.5% NP40; Glutathione-Sepharose 4B beads, 4 h at 4°C; RNAse A (10 mg/ml) in the fourth wash; blot with anti-Flag and ….

B1: FLAG-tagged RBM6 (protein, UniProt P78332 1-1123)
chain: MWGDSRPANRTGPFRGSQEERFAPGWNRDYPPPPLKSHAQERHSGNFPGRDSLPFDFQGHSGPPFANVEEHSFSYGARDGPHGDYRGGEGPGHDFRGGDFSSSDFQSRDSSQLDFRGRDIHSGDFRDREGPPMDYRGGDGTSMDYRGREAPHMNYRDRDAHAVDFRGRDAPPSDFRGRGTYDLDFRGRDGSHADFRGRDLSDLDFRAREQSRSDFRNRDVSDLDFRDKDGTQVDFRGRGSGTTDLDFRDRDTPHSDFRGRHRSRTDQDFRGREMGSCMEFKDREMPPVDPNILDYIQPSTQDREHSGMNVNRREESTHDHTIERPAFGIQKGEFEHSETREGETQGVAFEHESPADFQNSQSPVQDQDKSQLSGREEQSSDAGLFKEEGGLDFLGRQDTDYRSMEYRDVDHRLPGSQMFGYGQSKSFPEGKTARDAQRDLQDQDYRTGPSEEKPSRLIRLSGVPEDATKEEILNAFRTPDGMPVKNLQLKEYNTGYDYGYVCVEFSLLEDAIGCMEANQGTLMIQDKEVTLEYVSSLDFWYCKRCKANIGGHRSSCSFCKNPREVTEAKQELITYPQPQKTSIPAPLEKQPNQPLRPADKEPEPRKREEGQESRLGHQKREAERYLPPSRREGPTFRRDRERESWSGETRQDGESKTIMLKRIYRSTPPEVIVEVLEPYVRLTTANVRIIKNRTGPMGHTYGFIDLDSHAEALRVVKILQNLDPPFSIDGKMVAVNLATGKRRNDSGDHSDHMHYYQGKKYFRDRRGGGRNSDWSSDTNRQGQQSSSDCYIYDSATGYYYDPLAGTYYDPNTQQEVYVPQDPGLPEEEEIKEKKPTSQGKSSSKKEMSKRDGKEKKDRGVTRFQENASEGKAPAEDVFKKPLPPTVKKEESPPPPKVVNPLIGLLGEYGGDSDYEEEEEEEQTPPPQPRTAQPQKREEQTKKENEEDKLTDWNKLACLLCRRQFPNKEVLIKHQQLSDLHKQNLEIHRKIKQSEQELAYLERREREGKFKGRGNDRREKLQSFDSPERKRIKYSRETDSDRKLVDKEDIDTSSKGGCVQQATGWRKGTGLGYGHPGLASSEEAEGRMRGPSVGASGRTSKRQSNETYRDAVRRVMFARYKELD
Take B1: the binding result is “binds”.
